These are yes or no findings as the source states them, for the method shown. Binding seen in cells or lysates may run through a third protein. Some results given as binding are weak or reduced against the parent protein; the word gives no strength.
Tests used:
[1] = molecular target: Flag-EZH2 (UniProt Q15910); experiment: co-IP; HEK293T cells co-transfected with Flag-EZH2 and HA-TRIM25; NP-40 lysate, anti-Flag or anti-HA antibodies, protein A/G beads, immunoblot
[2] = molecular target: Enhancer of zeste 2 polycomb repressive complex 2 subunit (EZH2), endogenous (human (endogenous in SW480)) (UniProt Q15910); experiment: co-IP; endogenous proteins in SW480 lysate (NP-40 lysis buffer, 4°C); anti-TRIM25 or anti-EZH2 antibodies overnight, protein A/G beads, immunoblot; for TRAF6: anti-EZH2 IP (IgG control) from cells transfected with siNC or siTRIM25

By UniProt entry, the sequences of proteins in these tests, tags left out.
UniProt Q15910: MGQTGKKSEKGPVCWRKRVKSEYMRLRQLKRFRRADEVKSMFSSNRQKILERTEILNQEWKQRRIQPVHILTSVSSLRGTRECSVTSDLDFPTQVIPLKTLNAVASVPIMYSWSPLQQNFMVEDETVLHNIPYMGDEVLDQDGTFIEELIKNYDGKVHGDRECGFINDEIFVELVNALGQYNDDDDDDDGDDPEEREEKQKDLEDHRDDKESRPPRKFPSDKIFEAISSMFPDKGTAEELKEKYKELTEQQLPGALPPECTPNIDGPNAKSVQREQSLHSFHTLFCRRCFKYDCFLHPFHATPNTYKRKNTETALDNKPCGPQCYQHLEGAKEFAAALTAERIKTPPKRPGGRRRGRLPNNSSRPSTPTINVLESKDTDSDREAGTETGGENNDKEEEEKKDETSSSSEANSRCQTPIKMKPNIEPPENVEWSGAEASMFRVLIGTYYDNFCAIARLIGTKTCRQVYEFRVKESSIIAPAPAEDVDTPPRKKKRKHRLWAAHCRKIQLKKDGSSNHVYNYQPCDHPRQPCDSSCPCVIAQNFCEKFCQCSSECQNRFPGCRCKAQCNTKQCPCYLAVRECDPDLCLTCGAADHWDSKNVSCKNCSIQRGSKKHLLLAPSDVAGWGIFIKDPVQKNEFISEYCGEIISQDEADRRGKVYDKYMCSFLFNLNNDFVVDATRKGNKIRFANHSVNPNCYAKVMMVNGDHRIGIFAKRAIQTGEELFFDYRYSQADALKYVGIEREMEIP
UniProt Q14258: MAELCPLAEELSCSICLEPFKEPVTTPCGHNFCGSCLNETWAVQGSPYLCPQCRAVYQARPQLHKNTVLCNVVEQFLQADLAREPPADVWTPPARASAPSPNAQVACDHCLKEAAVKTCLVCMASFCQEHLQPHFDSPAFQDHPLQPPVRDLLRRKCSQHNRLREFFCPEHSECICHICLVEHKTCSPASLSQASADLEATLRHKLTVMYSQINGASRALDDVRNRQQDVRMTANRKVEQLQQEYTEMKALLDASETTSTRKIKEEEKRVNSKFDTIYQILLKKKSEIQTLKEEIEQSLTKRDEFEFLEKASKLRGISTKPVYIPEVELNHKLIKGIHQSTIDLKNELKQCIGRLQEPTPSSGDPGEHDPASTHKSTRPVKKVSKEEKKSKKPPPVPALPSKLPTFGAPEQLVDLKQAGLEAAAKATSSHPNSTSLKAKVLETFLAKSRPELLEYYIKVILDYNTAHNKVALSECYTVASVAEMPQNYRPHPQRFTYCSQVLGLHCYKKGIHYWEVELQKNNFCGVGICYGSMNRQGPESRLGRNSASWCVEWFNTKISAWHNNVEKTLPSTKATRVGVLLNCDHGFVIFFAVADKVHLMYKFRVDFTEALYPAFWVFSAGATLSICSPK

Substance | binding [1] | binding [2]
HA-TRIM25 (from UniProt Q14258 1-630) | binds | 
Tripartite motif containing 25 (TRIM25), endogenous (from UniProt Q14258 1-630) |  | binds

From PMC8106682
